The data set can be described thus: general procedure: Boc solid-phase peptide synthesis; benzhydrylamine (BHA) resin, copolymer of styrene-1% divinylbenzene (Beckman); symmetrical anhydrides of Boc-amino acids. Conditions: for step yield: late stage modification step; for isolated yield: whole synthesis.

This is an account of results in US5013722A (Hoffmann-LaRoche Inc., priority 1989, dated 1991).

Strings that start with PEPTIDE1 are HELM notation: dots part the residues, brackets hold end groups and non-standard residues.

In turn, “A-Tyr(SO3 H)-Nle-Gly-Trp-Nle-Thr(SO3 H)-N-methyl-Phe-NH2” displayed a step yield of 66%. “Ac-Tyr(SO3 H)-Nle-Gly-Trp-Nle-Thr(SO3 H)-N-methyl-Phe-NH2” registered an isolated yield of 31%. “PEPTIDE1{[ac].[sY].M.A.W.M.[sT].[meF].[am]}$$$$V2.0” returned a step yield of 95%. For the substance “PEPTIDE1{[ac].[sY].M.A.[fW].M.[sT].[meF].[am]}$$$$V2.0”, the step yield stood at 70% and the isolated yield was 6.6%.

In turn, “PEPTIDE1{[ac].[sY].M.G.W.M.[sT].[meF].[am]}$$$$V2.0” had a step yield of 90%. “PEPTIDE1{[ac].[sY].M.G.[fW].M.[sT].[meF].[am]}$$$$V2.0” gave a step yield of 43% and an isolated yield of 16.1%.

In the case of “PEPTIDE1{[ac].[sY].[Nle].[dA].W.M.[sT].[meF].[am]}$$$$V2.0”, the step yield is listed as 93%.

With “PEPTIDE1{[ac].[sY].[Nle].[dA].[fW].M.[sT].[meF].[am]}$$$$V2.0”, the step yield was 70% and the isolated yield worked out at 5.36%.
